These are literature values, as cited in patent publication US20140200276A1 (iCeutica, Inc., priority 2009, published 2014).

By UniProt entry, the sequences of proteins in these tests, tags left out. Residues count along the entry.
UniProt P02768, 25-609: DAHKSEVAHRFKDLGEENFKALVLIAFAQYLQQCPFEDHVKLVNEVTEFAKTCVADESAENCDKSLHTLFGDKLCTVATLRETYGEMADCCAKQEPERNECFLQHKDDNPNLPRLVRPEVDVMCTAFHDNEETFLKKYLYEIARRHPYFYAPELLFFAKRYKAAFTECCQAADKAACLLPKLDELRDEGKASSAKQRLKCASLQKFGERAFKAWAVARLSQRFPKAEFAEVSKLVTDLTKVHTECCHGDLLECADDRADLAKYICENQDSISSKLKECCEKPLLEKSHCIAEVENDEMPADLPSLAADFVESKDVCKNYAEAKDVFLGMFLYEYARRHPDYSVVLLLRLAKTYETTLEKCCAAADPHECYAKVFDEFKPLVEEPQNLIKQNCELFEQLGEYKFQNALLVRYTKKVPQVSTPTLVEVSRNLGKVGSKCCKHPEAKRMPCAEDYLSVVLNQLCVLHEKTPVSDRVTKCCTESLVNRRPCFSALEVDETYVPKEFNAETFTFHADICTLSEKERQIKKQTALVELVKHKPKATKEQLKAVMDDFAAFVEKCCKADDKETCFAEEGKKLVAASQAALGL

One series has as its target albumin (Homo sapiens, UniProt P02768). The following applies: at therapeutic levels.
The conditions of series [1]: current commercial formulations of naproxen.

As for `COc1ccc2cc([C@H](C)C(=O)O)ccc2c1` [naproxen], at albumin, the albumin-bound entry is on record as “greater than 99%”. Moreover, the “Tmax of current commercial formulations” value in series [1] is 1 to 4 h.
